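Wild-type E. coli carrying GFP, grown in the same well as an h34 humanized-ribosome RFP strain; GFP fluorescence for growth, read after 24 h. The value is the change in activity at the highest dose tested; more negative means stronger inhibition. Active requires GFP to fall at least twice as much as RFP with growth loss below a set limit; inconclusive means no clear call; everything else is inactive.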

Only part of the assay is shown, chiefly results filed as inconclusive.

SMILES,condition,activity change,filed as
CSCCC1NC(=O)N(C(C)C(=O)Nc2cc(Cl)cc(Cl)c2)C1=O (stereo not shown),at 50 µM (top of the series),9.689,inconclusive
Cc1ccc(NC(=O)COC(=O)CCNS(=O)(=O)c2c(Cl)cccc2Cl)cc1,at 50 µM (top of the series),18.6,inconclusive
O=C(Nc1cccc(F)c1)N1C[C@@H]2[C@H](c3ccccc31)[C@H](CO)N2C(=O)Cc1ccccn1,at 50 µM (top of the series),-1.186,inactive
COCc1cc(C)nc(SCC[N+](C)(C)CC(=O)c2ccc(Br)cc2)c1C#N,at 50 µM (top of the series),2.079,inconclusive
Cn1cc(CCC(=O)NCc2ccc3c(c2)OCO3)c2ccccc21,at 50 µM (top of the series),-2.364,inactive
Nc1ccc(C(=O)OCCCc2nc3cc4ccccc4cc3[nH]2)cc1,at 50 µM (top of the series),26.36,inconclusive
Cc1cccc(NC(=O)COc2cccc3c2CCNC3=O)c1,at 50 µM (top of the series),42.18,inconclusive
Nc1nn(-c2ccccc2)c2ccc([N+](=O)[O-])cc12,at 50 µM (top of the series),32.25,inconclusive
COc1ccc(-c2cc(C(=O)Nc3ccc(C(N)=O)cc3)c3ccccc3n2)cc1OC,at 50 µM (top of the series),-26.25,inconclusive
Cc1nn2c(C)c(C(=O)Nc3ccccc3)cnc2c1-c1ccccc1,at 50 µM (top of the series),7.836,inconclusive
O=C(NCCc1ccc(O)cc1)c1[nH]c(C(F)(F)F)nc1-c1ccccc1,at 50 µM (top of the series),9.204,inconclusive
Cc1c(CCOC(=O)C23CC4CC(CC(C4)C2)C3)sc[n+]1Cc1ccccc1,at 50 µM (top of the series),4.043,inconclusive
CSc1nnnn1-c1ccc(Cl)cc1,at 50 µM (top of the series),19.69,inconclusive
Cc1ccc(-c2nc3ccc(NS(=O)(=O)c4ccccc4)cc3[nH]2)o1,at 50 µM (top of the series),-15.3,inconclusive
Cc1ccc(Cc2c(-c3ccc(C#N)cc3)nc3ccc(Br)cn23)cc1,at 50 µM (top of the series),21.21,inconclusive
CSc1nc(N)nc(SC2C=CCCC2)c1C#N (stereo not shown),at 50 µM (top of the series),-34.13,inconclusive
COC(=O)c1c(C)oc(C)c1S(=O)(=O)NC(c1ccccc1)c1ccccc1,at 50 µM (top of the series),-28.94,inconclusive
N#Cc1cccc(-c2ccc3c(c2)[C@@H]2[C@@H](CCN2S(=O)(=O)c2cccc(F)c2)[C@H](CO)N3)c1,at 50 µM (top of the series),-8.628,inconclusive
Cc1cccc(-c2ccc([C@@H]3[C@@H](CO)N4CCCCN(S(=O)(=O)c5ccccc5C)C[C@@H]34)cc2)c1,at 50 µM (top of the series),4.644,inactive
Cc1ccccc1NS(=O)(=O)c1cc(C(=O)NCCC2=CCCCC2)ccc1C,at 50 µM (top of the series),12.53,inactive
O=C(Nc1ccc(Cl)cn1)c1ccc([N+](=O)[O-])o1,at 50 µM (top of the series),29.37,inconclusive
Cc1ccc(C(=O)Nc2cccc3[nH]c(C(F)(F)F)nc23)cc1,at 50 µM (top of the series),5.174,inconclusive
O=C(NCCC1=CCCCC1)c1ccc(Cl)c(S(=O)(=O)Nc2ccccc2)c1,at 50 µM (top of the series),1.751,inconclusive
Cc1ccc(C(=O)Nc2cccc(N(C)S(C)(=O)=O)c2)cc1S(=O)(=O)Nc1ccccc1,at 50 µM (top of the series),25.86,inconclusive
Cc1ccc(NC(=O)c2cccs2)cc1[N+](=O)[O-],at 50 µM (top of the series),19.72,inconclusive
COc1ccc(-c2n[nH]c3c2CN(C(=O)c2ccc(F)cc2)CC3)cc1,at 50 µM (top of the series),9.477,inconclusive
COc1cccc(NC(=O)C2CCC(CNS(=O)(=O)c3cccc4cccnc34)CC2)c1 (stereo not shown),at 50 µM (top of the series),16.27,inconclusive
CN(Cc1ccccc1NS(=O)(=O)c1ccc(Cl)cc1)C1CCCCC1,at 50 µM (top of the series),11.2,inconclusive
O=C(Cc1ccccc1Cl)Nc1nc2ccccc2[nH]1,at 50 µM (top of the series),-0.4,inconclusive
C[C@@H]1CCCCO[C@H](CN(C)C(=O)CCCN(C)C)[C@@H](C)CN([C@H](C)CO)C(=O)c2cc(NC(=O)Nc3cccc4ccccc34)ccc2O1,at 50 µM (top of the series),27.01,inconclusive
Cc1ccc(-n2nnnc2SCC(=O)NC2CCCc3ccccc32)cc1 (stereo not shown),at 50 µM (top of the series),-21.39,inconclusive
CC(=O)Oc1ccc(N(c2ccccc2)S(=O)(=O)c2ccc(C)cc2)cc1,at 50 µM (top of the series),-4.377,inconclusive
CC(NC(=O)c1ccc(CS(=O)(=O)c2ccc(Cl)cc2)o1)c1ccc2c(c1)OCCO2 (stereo not shown),at 50 µM (top of the series),-3.572,inconclusive
O=S(=O)(Cc1ccccc1)N1CCCCN2[C@@H](CO)[C@H](c3ccc(C#Cc4ccccc4)cc3)[C@@H]2C1,at 50 µM (top of the series),-99.41,inconclusive
COc1ccc(CNC(=O)c2cc3c(s2)CN(Cc2ccccc2)C3)cc1,at 50 µM (top of the series),-13.73,inconclusive
O=C(COC(=O)c1cccc(S(=O)(=O)N2CCCCC2)c1)NCc1cccc(Cl)c1,at 50 µM (top of the series),2.786,inconclusive
CC(C)NC(=O)N(C)C[C@H]1OCCCC[C@@H](C)Oc2ccc(NC(=O)c3ccccc3)cc2C(=O)N([C@@H](C)CO)C[C@H]1C,at 50 µM (top of the series),7.895,inconclusive
Cc1noc(C)c1NC(=O)Nc1ccc2c(c1)C(=O)N([C@H](C)CO)C[C@H](C)[C@H](CN(C)C(=O)Nc1ccc3c(c1)OCO3)OCCCC[C@H](C)O2,at 50 µM (top of the series),15.97,inconclusive
O=C(Cc1ccc(Cl)cc1)c1ccc(O)cc1,at 50 µM (top of the series),23.05,inconclusive
O=C(NCc1ccccc1)c1ccc(-c2ccccc2F)o1,at 50 µM (top of the series),-26.5,inconclusive
CCOC(=O)Cc1csc(SCC(=O)Nc2cc(C)ccc2OC)n1,at 50 µM (top of the series),-12.03,inconclusive
COCCNC(=O)c1cc2c(-c3ccc(Cl)cc3)nn(C)c2s1,at 50 µM (top of the series),21.73,inconclusive
O=C(O)CC(CC(=O)Nc1ccc(Oc2ccccc2)cc1)c1ccccc1 (stereo not shown),at 50 µM (top of the series),-17.45,inactive
Cc1ccc(N(CC(O)Cn2nc(C)cc2C)S(=O)(=O)c2ccc3ccccc3c2)cc1 (stereo not shown),at 50 µM (top of the series),-24.68,inconclusive
O=C(CC1SC(=O)N(Cc2ccccc2Cl)C1=O)Nc1nccs1 (stereo not shown),at 50 µM (top of the series),31.84,inconclusive
CCCN1C(=O)C(O)(c2c(C)[nH]c3ccccc23)c2ccccc21 (stereo not shown),at 50 µM (top of the series),5.726,inactive
CC(C)(C)c1ccc(C(CC(=O)O)NC(=O)Cc2ccc(Cl)cc2)cc1 (stereo not shown),at 50 µM (top of the series),28.01,inconclusive
O=C(C[n+]1ccc(Cc2ccccc2)cc1)Nc1ccc([N+](=O)[O-])cc1Cl,at 50 µM (top of the series),20.43,inconclusive
CCOc1cccc2sc(NC(=O)CC)nc12,at 50 µM (top of the series),3.757,inconclusive
O=S(=O)(Nc1ccccc1N1CCCCC1)c1cccs1,at 50 µM (top of the series),13.92,inconclusive
COC(=O)c1cc(C)sc1NC(=O)CC1Nc2ccccc2NC1=O (stereo not shown),at 50 µM (top of the series),27.2,inconclusive
Cc1noc(C)c1NC(=O)Nc1ccc2c(c1)C(=O)N([C@@H](C)CO)C[C@@H](C)[C@H](CN(C)C(=O)Nc1ccc3c(c1)OCO3)OCCCC[C@H](C)O2,at 50 µM (top of the series),20.85,inconclusive
COc1ccc(Nc2oc(-c3ccco3)nc2S(=O)(=O)c2ccc(F)cc2)cc1,at 50 µM (top of the series),-30.64,inconclusive
COC(=O)c1ccc(CCc2cc(O)c(Br)cc2O)cc1,at 50 µM (top of the series),2.244,inactive
Nc1nc(=S)ss1,at 50 µM (top of the series),-10.39,inconclusive

The first 4 entries again:

- CSCCC1NC(=O)N(C(C)C(=O)Nc2cc(Cl)cc(Cl)c2)C1=O (stereo not shown) [at 50 µM (top of the series)] : activity change 9.689 (inconclusive)
- Cc1ccc(NC(=O)COC(=O)CCNS(=O)(=O)c2c(Cl)cccc2Cl)cc1 [at 50 µM (top of the series)] : activity change 18.6 (inconclusive)
- O=C(Nc1cccc(F)c1)N1C[C@@H]2[C@H](c3ccccc31)[C@H](CO)N2C(=O)Cc1ccccn1 [at 50 µM (top of the series)] : activity change -1.186 (inactive)
- COCc1cc(C)nc(SCC[N+](C)(C)CC(=O)c2ccc(Br)cc2)c1C#N [at 50 µM (top of the series)] : activity change 2.079 (inconclusive)

From PubChem BioAssay record AID977624 (Broad Institute, 2014).